Assay results as given in the supplement of paper PMC9135407.
Where “and” joins values, the source holds several entries; their conditions need not be identical. Identical values can stand only once. Counter-ions that a name gives are not always drawn. ± gives the standard deviation of the averaged measurements. This is one part of the list. Plates or batches differ in their baseline, so values are only roughly comparable.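 Culture-activated primary human stellate myofibroblasts, where regained lipid droplets signal inactivation. Value: share of Hoechst-counted cells above a per-plate Bodipy cutoff, in duplicate wells, with DMSO negative and nortriptyline positive controls on each plate. Hits: a control-normalized score above the plate's top-tenth-percentile nortriptyline wells, or one of a plate's three best wells. Final well concentrations are not given.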

System: primary human hepatic stellate cells (donor 1)
Assay: percent Bodipy-positive cells; higher = more lipid droplet accumulation
Settings: 48 h
[1] = library stock concentration: 10 mM
[2] = library stock concentration: 1 mM
[3] = library stock concentration: 3.33 mM

CCn1c(=O)[nH]c2ccccc21
percent Bodipy-positive cells [1]: 8.55 ± 2.5%

CN(C)S(=O)(=O)c1ccc2c(c1)/C(=C/c1cc3c([nH]1)CCCC3)C(=O)N2
percent Bodipy-positive cells [2]: 55.6 ± 3.5%

CCC1=C[C@@H]2CN(C1)Cc1c([nH]c3ccccc13)[C@@](C(=O)OC)(c1cc3c(cc1OC)N(C)[C@H]1[C@@](O)(C(=O)OC)[C@H](OC(C)=O)[C@]4(CC)C=CCN5CC[C@]31[C@@H]54)C2 [Vinorelbine]
percent Bodipy-positive cells (library stock concentration: 2.6 mM): 61.6 ± 5%

O=C(O)CCCCCC[C@H]1C(=O)C[C@@H](O)[C@@H]1/C=C/[C@@H](O)Cc1ccccc1 [16-phenyl tetranor Prostaglandin E1]
percent Bodipy-positive cells [2]: 28.5 ± 9.4%

NCC(O)c1ccc(O)c(O)c1 (centres undefined)
percent Bodipy-positive cells [1]: 46.2 ± 14%

O=c1ccc2c(OCCCCc3ccccc3)c3ccoc3cc2o1 [Psora-4]
percent Bodipy-positive cells [1]: 47.6 ± 15%

C=CC(=O)Nc1cccc(Nc2nc(Nc3ccc(NC4CN(CCF)C4)cc3OC)ncc2C(F)(F)F)c1
percent Bodipy-positive cells [3]: 48.8 ± 7.1% | percent Bodipy-positive cells [1]: 92.9 ± 3.7%

COCC(=O)NC/C=C/c1ccc2ncnc(Nc3ccc(Oc4ccc(C)nc4)c(C)c3)c2c1
percent Bodipy-positive cells [1]: 98.87 ± 0.33%

CCn1cc(C(=O)O)c(=O)c2cc(F)c(N3CCNC(C)C3)c(F)c21 (centres undefined) [Lomefloxacin HCl]
percent Bodipy-positive cells (library stock concentration: 5.7 mM): 7.25 ± 1.9%

CCn1cc(C(=O)O)c(=O)c2cc(F)c(N3CCNC(C)C3)c(F)c21 (centres undefined) [Lomefloxacin hydrochloride]
percent Bodipy-positive cells: 20.1 ± 0.68% | percent Bodipy-positive cells (library stock concentration: 5.2 mM): 11.9 ± 1.3% | percent Bodipy-positive cells [1]: 23.8% and 19.5%

NC(=O)c1cc[n+](CC2=C(C(=O)O)N3C(=O)[C@@H](NC(=O)C(c4ccccc4)S(=O)(=O)[O-])[C@H]3SC2)cc1 (some centres undefined) [Cefsulodin sodium salt hydrate]
percent Bodipy-positive cells [1]: 31.8 ± 5.3%

CS(=O)(=O)Nc1ccc([N+](=O)[O-])cc1Oc1ccccc1 [Nimesulide]
percent Bodipy-positive cells: 22.7 ± 1% | percent Bodipy-positive cells [2]: 8.36 ± 1.9% | percent Bodipy-positive cells [3]: 8.07 ± 0.69% | percent Bodipy-positive cells (library stock concentration: 16.2 mM): 17.9 ± 1.8%

COc1cc(C)nc(-n2nc(C)cc2OC)n1
percent Bodipy-positive cells [1]: 6.34 ± 0.65%

COc1cc(C)nc(-n2nc(C)cc2OC)n1 [Epirizole]
percent Bodipy-positive cells: 26.4 ± 13%

CCOC(=O)CCC(=O)O[C@H]1[C@H](O[C@@H]2[C@@H](C)[C@H](O[C@H]3C[C@@](C)(OC)[C@@H](O)[C@H](C)O3)[C@@H](C)C(=O)O[C@H](CC)[C@@](C)(O)[C@H](O)[C@@H](C)C(=O)[C@H](C)C[C@@]2(C)O)O[C@H](C)C[C@@H]1N(C)C [Erythromycin ethylsuccinate]
percent Bodipy-positive cells (library stock concentration: 2.3 mM): 3.93 ± 0.99% | percent Bodipy-positive cells [1]: 34.1 ± 0.71%

CCOC(=O)CCC(=O)O[C@H]1[C@H](O[C@@H]2[C@@H](C)[C@H](O[C@H]3C[C@@](C)(OC)[C@@H](O)[C@H](C)O3)[C@@H](C)C(=O)O[C@H](CC)[C@@](C)(O)[C@H](O)[C@@H](C)C(=O)[C@H](C)C[C@@]2(C)O)O[C@H](C)C[C@@H]1N(C)C [Eryped]
percent Bodipy-positive cells [1]: 33.5 ± 4.9%

COc1cc(NC(=O)c2ccc(-c3ccc(Cl)cc3)o2)cc(OC)c1
percent Bodipy-positive cells [3]: 14.9 ± 6.6% | percent Bodipy-positive cells [1]: 49.5 ± 4.5%

CC(C)C(=O)Nc1ncc(-c2cc(C(F)F)nn2-c2c(Cl)cccc2Cl)s1
percent Bodipy-positive cells [1]: 86.8 ± 6.6%

Nc1ncnc2nc(-c3ccc(N4CCOCC4)nc3)cc(-c3cccc(Br)c3)c12
percent Bodipy-positive cells (library stock concentration: 80 uM): 13.3 ± 0.18% | percent Bodipy-positive cells (library stock concentration: 400 uM): 18.5 ± 2.9% | percent Bodipy-positive cells (library stock concentration: 2 mM): 13 ± 0.53%
